Source: PubChem BioAssay AID504774 (Drosophila RNAi Screening Center, 2011)

Test: 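Knock-downs that shift viability of MMS-exposed cells relative to untreated ones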 (primary screen)
Cells: Drosophila Kc167 cells
Reagent: long dsRNA against Drosophila genes, about 0.25 µg dsRNA per well
Time to read-out: about 6 days: 3 days knock-down, then 3 days with or without MMS
Challenge: methyl methanesulphonate 0.004% (w/v) for 3 days after knock-down
Measurement: 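Viability in wells given MMS, read as ATP luminescence, normalised by quantiles plate by plate and averaged across replicates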
Direction: mean viability with MMS: higher = more surviving cells after MMS
In all, the deposit lists about 23,000 reagents; below is an unselected part of those with a known target gene and a result. 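Values are quantile-normalised luminescence on an arbitrary scale; higher means more cells surviving MMS.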 Names joined by + are all predicted targets of the reagent. Further read-outs or replicates are left out here.

no.	gene	dsRNA	mean viability with MMS
1	vret (GeneID 42695)	DRSC15640	3.58e6
2	pygo (GeneID 43718)	DRSC14322	3.07e6
3	EMC2B + EMC2A	DRSC15241	3.93e6
4	Plekhm1 (GeneID 37520)	DRSC04527	3.40e6
5	kra (GeneID 40680)	DRSC12320	3.47e6
6	CG8191 + CG12379	DRSC19451	3.42e6
7	Pgls (GeneID 32013)	DRSC19769	3.57e6
8	LamC (GeneID 36615)	DRSC07453	3.56e6
9	a10 (GeneID 39906)	DRSC11319	3.49e6
10	Prat2 (GeneID 38753)	DRSC09692	3.64e6
11	Iyd (GeneID 39242)	DRSC10614	3.71e6
12	Iyd (GeneID 39242)	DRSC10615	3.66e6
13	SdhAL (GeneID 39348)	DRSC10539	3.61e6
14	Teh4 (GeneID 38501)	DRSC08457	3.46e6
15	rin (GeneID 47998)	DRSC17045	3.32e6
16	rin (GeneID 47998)	DRSC22997	3.40e6
17	CG34324 (GeneID 32302)	DRSC19502	3.51e6
18	CG34324 (GeneID 32302)	DRSC23241	3.65e6
19	CG10947 (GeneID 35309)	DRSC02111	3.34e6
20	CG5850 (GeneID 34327)	DRSC02905	3.72e6
21	CG14270 (GeneID 31319)	DRSC17913	3.38e6
22	CG11030 (GeneID 33805)	DRSC02120	3.48e6
23	PGRP-SC2 (GeneID 35862)	DRSC06481	3.53e6
24	CG7220 (GeneID 36129)	DRSC05235	3.68e6
25	CG7220 (GeneID 36129)	DRSC07018	3.59e6
26	CG14089 (GeneID 40101)	DRSC10093	3.54e6
27	myd (GeneID 42303)	DRSC14762	3.21e6
28	myd (GeneID 42303)	DRSC15512	3.55e6
29	dsx-c73A (GeneID 39831)	DRSC09435	3.49e6
30	dsx-c73A (GeneID 39831)	DRSC09914	3.55e6
31	dsx-c73A (GeneID 39831)	DRSC10429	3.76e6
32	spidey (GeneID 31703)	DRSC17932	3.48e6
33	CG31031 (retired record) (GeneID 318564)	DRSC13964	3.65e6
34	mRRF1 (GeneID 39067)	DRSC10421	3.48e6
35	fd96Ca (GeneID 43010)	DRSC16946	3.46e6
36	CG32087 (GeneID 39323)	DRSC10806	3.54e6
37	CG32809 (GeneID 31121)	DRSC18507	3.57e6
38	CG32809 (GeneID 31121)	DRSC18562	3.56e6
39	CG32809 (GeneID 31121)	DRSC18592	3.50e6
40	CG33453 (GeneID 2768851)	DRSC05782	3.47e6
41	gry (GeneID 38391)	DRSC08028	3.48e6
42	gry (GeneID 38391)	DRSC08518	3.74e6
43	CG14866 (GeneID 41854)	DRSC14989	3.73e6
44	msopa (GeneID 45962)	DRSC11895	3.14e6
45	msopa (GeneID 45962)	DRSC23240	3.53e6
46	CG3611 (GeneID 37972)	DRSC04395	3.46e6
47	CG2698 (GeneID 40945)	DRSC15447	3.45e6
48	Ste:CG33238 + Ste:CG33241 + Ste:CG33236 + 11 more	DRSC19004	3.57e6
49	Ste:CG33238 + Ste:CG33241 + Ste:CG33236 + 11 more	DRSC21260	3.52e6
50	Pxt (GeneID 42131)	DRSC17040	3.56e6
51	CG11414 (GeneID 37923)	DRSC04110	3.60e6
52	CG15423 (GeneID 33616)	DRSC00437	3.50e6
53	CG15822 (GeneID 38273)	DRSC08482	3.52e6
54	CG15822 (GeneID 38273)	DRSC08483	3.60e6
55	Irk1 (GeneID 42742)	DRSC16106	3.84e6
56	mRpL54 (GeneID 37389)	DRSC04545	3.59e6
57	p-cup (GeneID 32727)	DRSC19513	3.48e6
58	TpnC73F (GeneID 39916)	DRSC11307	3.44e6
59	Tsp3A (GeneID 31244)	DRSC18656	3.55e6
60	CG17801 (GeneID 42144)	DRSC15273	3.55e6
61	Prps (GeneID 39132)	DRSC08994	3.33e6
62	Prps (GeneID 39132)	DRSC10707	3.37e6
63	Prps (GeneID 39132)	DRSC10708	3.42e6
64	CG14974 (GeneID 50167)	DRSC08433	3.56e6
65	CG14304 (GeneID 42232)	DRSC14783	3.36e6
66	Papss (GeneID 40167)	DRSC11246	3.55e6
67	Hr39 (GeneID 35398)	DRSC03346	3.54e6
68	CG12091 (GeneID 38177)	DRSC08251	3.58e6
69	Dys + snoRNA:Me18S-A1374	DRSC16232	3.41e6
70	nej (GeneID 43856)	DRSC18006	3.23e6
71	nej (GeneID 43856)	DRSC18801	2.57e6
72	CG9380 (GeneID 38011)	DRSC04549	3.50e6
73	Fhos (GeneID 39004)	DRSC08943	3.54e6
74	Fhos (GeneID 39004)	DRSC10545	3.65e6
75	Fhos (GeneID 39004)	DRSC10546	3.64e6
76	Fhos (GeneID 39004)	DRSC10547	3.71e6
77	p53 (GeneID 2768677)	DRSC17024	3.55e6
78	E(spl)m2-BFM (GeneID 43155)	DRSC16991	2.97e6
79	E(spl)m2-BFM (GeneID 43155)	DRSC23082	3.64e6
80	comm3 (GeneID 39696)	DRSC09993	3.67e6
81	comm3 (GeneID 39696)	DRSC09994	3.56e6
82	comm3 (GeneID 39696)	DRSC09995	3.55e6
83	obst-E (GeneID 33806)	DRSC02128	3.48e6
84	CG1416 (GeneID 35426)	DRSC03706	3.53e6
85	Mcr (GeneID 44071)	DRSC03366	3.57e6
86	CG34171 (GeneID 5740474)	DRSC01637	3.41e6
87	Cpr65Ay (GeneID 5740348)	DRSC08796	3.43e6
